# Measured values published in the supplement of paper PMC11098740.
# The chains behind the UniProt entries cited, without tags or fusion partners.
# UniProt O14980, whole entry: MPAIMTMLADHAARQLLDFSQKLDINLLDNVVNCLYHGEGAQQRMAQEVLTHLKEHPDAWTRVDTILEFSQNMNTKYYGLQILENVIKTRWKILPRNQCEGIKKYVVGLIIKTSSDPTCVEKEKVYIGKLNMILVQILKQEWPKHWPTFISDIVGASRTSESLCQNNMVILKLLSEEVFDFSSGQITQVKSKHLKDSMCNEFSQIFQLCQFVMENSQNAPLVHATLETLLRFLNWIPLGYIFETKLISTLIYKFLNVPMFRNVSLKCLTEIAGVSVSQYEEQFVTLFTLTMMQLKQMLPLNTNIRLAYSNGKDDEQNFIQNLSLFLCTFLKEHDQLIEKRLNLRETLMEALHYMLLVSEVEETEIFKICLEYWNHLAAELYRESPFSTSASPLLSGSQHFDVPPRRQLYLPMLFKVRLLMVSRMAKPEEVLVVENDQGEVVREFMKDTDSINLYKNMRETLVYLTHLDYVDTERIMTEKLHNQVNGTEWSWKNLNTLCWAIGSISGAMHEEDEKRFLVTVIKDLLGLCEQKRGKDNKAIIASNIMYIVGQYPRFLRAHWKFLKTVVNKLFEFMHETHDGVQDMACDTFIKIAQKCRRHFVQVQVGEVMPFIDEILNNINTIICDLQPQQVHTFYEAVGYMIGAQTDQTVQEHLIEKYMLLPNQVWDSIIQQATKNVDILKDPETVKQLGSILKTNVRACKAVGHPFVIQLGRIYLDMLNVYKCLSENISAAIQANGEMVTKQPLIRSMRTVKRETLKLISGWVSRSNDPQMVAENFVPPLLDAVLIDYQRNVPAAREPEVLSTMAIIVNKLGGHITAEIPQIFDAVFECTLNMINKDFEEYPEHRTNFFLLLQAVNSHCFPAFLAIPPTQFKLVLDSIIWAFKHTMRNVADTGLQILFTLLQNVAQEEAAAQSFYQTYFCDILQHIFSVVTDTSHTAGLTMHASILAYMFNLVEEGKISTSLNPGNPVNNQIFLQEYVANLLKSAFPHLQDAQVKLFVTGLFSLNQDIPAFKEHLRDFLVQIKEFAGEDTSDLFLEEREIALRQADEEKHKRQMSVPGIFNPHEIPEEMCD
# Some of the results follow. Single values are uncertain, as repeats are few or missing.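 Test system: a mixed pool of 41 HAP1 clones in which 61 cancer-associated proteins carry fluorescent tags inserted into introns, and each clone is identified from its image pattern. Read-outs are compared with DMSO-treated control wells. The BRD4 degrader dBET6 served as the positive control.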
# Biological target: XPO1 (intron 15 mScarlet tag, HAP1) (UniProt O14980)
# Experiment: XPO1 fluorescence intensity change vs DMSO (log2 fold change); higher = more XPO1 protein
# Settings: 6 h
row,SMILES,XPO1 fluorescence intensity change (log2)
1,COc1ccc2nc(NCc3ccccc3)[nH]c2c1 (10 µM),0.144
2,Cc1ccccc1N1CCN(C(=O)c2cn[nH]c2-c2ccccc2)CC1 (1 µM),-0.0674
3,CNC(=O)Nc1ccc2c(c1)CC[C@@]21OC(=O)N(CC(=O)N(Cc2ccc(F)cc2)[C@@H](C)C(F)(F)F)C1=O (10.01286268 µM),0.147
4,CN(C)c1cccc(C(=O)c2cccc(N(C)C)c2)c1 (10 µM),-0.108
5,Cc1nn(C)c2ncc(C(=O)Nc3cccc(NC(=O)c4cccs4)c3)cc12 (10 µM),0.00876
6,O=C1OCC(c2ccc3c(c2)OCCCO3)=C1c1ccc(Cl)c(Cl)c1 (10 µM),0.35
7,O=C(Nc1nc2ccccc2s1)NC(c1ccccc1)c1ccco1 (stereo not drawn) (1 µM),-0.139
8,COc1ccccc1N1CCN(C(=O)c2cn(C)c(=O)c3ccccc23)CC1 (1 µM),-0.264
9,O=C(Nc1ccc(C(=O)N2CCCC2)cc1)c1ccc(Br)o1 (10 µM),-0.00364
10,Cc1cc(NCCOc2ccc3c(c2)CCC3)n2ncnc2n1 (10 µM),0.166
11,COc1ccc(-c2noc(CCl)n2)c(OC)c1 (1 µM),-0.00946
12,Cc1cc(Sc2ccc3c(c2)OCCCO3)n2ncnc2c1 (10 µM),-0.0383
13,O=C(NCCCOCc1ccco1)c1cc2c(nc3sccn32)s1 (10 µM),0.137
14,O=C(Nc1cccnc1)c1ccc(Br)s1 (10 µM),-0.104
15,COC(=O)c1ccccc1NS(=O)(=O)c1ccc(OC)cc1 (10 µM),-0.0482
16,CCn1c(-c2nonc2N)nc2c(C#CC(C)(C)O)ncc(OC[C@H]3CCCNC3)c21 (20 µM),-0.178
17,O=C(Nc1nc(-c2ccccn2)cs1)c1ccc(Cl)cc1 (0.1 µM),0.0191
18,CC(=O)Nc1ccc(C(=O)Nc2nc(-c3c(C)[nH]c4ccccc34)cs2)s1 (10 µM),-0.00424
19,Cc1ccc(C(C)C)c(OCC(=O)Nc2nc(C)c(C)s2)c1 (10 µM),-0.129
20,CCCCOc1ccc(-c2nnc(CCl)o2)cc1 (10 µM),0.0889

row,SMILES,XPO1 fluorescence intensity change (log2)
1,CC(=O)NCCc1nc2ccccc2n1CCCOc1cc(C)ccc1C(C)C (10 µM),-0.11
2,O=C(Nc1ccc(-c2ccccc2)cn1)c1cccc(Cl)c1 (10 µM),-0.00165
3,Cn1cnc([N+](=O)[O-])c1Sc1ncnc2[nH]cnc12 [azathioprine] (10 µM),-0.00565
4,O=C(NCc1ccoc1)c1cc2c(nc3sccn32)s1 (10 µM),0.0973
5,Cc1ccc2sc(/C=C/c3cccnc3)nc2c1 (10 µM),-0.0992
6,CNc1ncc2cc(-c3cc(NC(=O)NCCC(C)(C)C)c(F)cc3C)c(C)nc2n1 (4.99874 µM),0.00431
7,COC(=O)c1ccc(C)c(NC(=O)CCNC(=O)Nc2ccccc2)c1 (10 µM),0.0245
8,Cc1ccc(C2=Nn3c(COc4ccccc4F)nnc3SC2)c(C)c1 (0.1 µM),0.0821
9,Cc1ccccc1OCCOC(=O)c1cc(C)c(C)c(S(N)(=O)=O)c1 (10 µM),-0.0445
10,CC(OC(=O)c1ccc(-c2ccc(O)cc2)cc1)C(=O)NCc1ccccc1 (stereo not drawn) (10 µM),-0.17
11,ClCc1nc2cc(Cl)ccc2n1Cc1ccccc1 (10 µM),-0.0566
12,O=C(Nc1cccc2cccnc12)c1ccccc1-c1ccccc1 (10 µM),-0.0475
13,Cn1ccnc1COc1ccc(C(=O)Nc2nc(C(C)(C)C)cs2)cc1 (1 µM),-0.136
14,COc1ccc(-c2nc(N(Cc3ccccc3)C(=O)CSc3nc(C)cc(=O)[nH]3)sc2C)cc1 (10 µM),-0.302
15,Cc1nc2ccc(C(=O)OC(C)C(=O)c3c(C)[nH]c4ccccc34)cc2nc1C (stereo not drawn) (10 µM),-0.268
16,O=C(Cc1noc(CCl)n1)NCc1ccccc1 (10 µM),0.0363
17,CN1CC(=O)Nc2cc(Cl)ccc21 (10 µM),-0.12
18,Cc1ccsc1C(=O)N=C(c1ccc(N(C)C)cc1)c1ccc(N(C)C)cc1 (10 µM),0.0712
19,O=C(CCc1ccco1)Nc1ccc(N2CCCC2)cn1 (1 µM),0.0631

# Biological target: BRD4 (intron 10 mScarlet tag, HAP1) (UniProt O60885)
# Experiment: BRD4 median nuclear fluorescence intensity change vs DMSO (log2 fold change); higher = more BRD4 protein
# Settings: 6 h
row,SMILES,BRD4 median nuclear fluorescence intensity change (log2)
1,COc1ccc2nc(NCc3ccccc3)[nH]c2c1 (10 µM),-0.00186
2,Cc1ccccc1N1CCN(C(=O)c2cn[nH]c2-c2ccccc2)CC1 (1 µM),-0.0506
3,CNC(=O)Nc1ccc2c(c1)CC[C@@]21OC(=O)N(CC(=O)N(Cc2ccc(F)cc2)[C@@H](C)C(F)(F)F)C1=O (10.01286268 µM),0.106
4,CN(C)c1cccc(C(=O)c2cccc(N(C)C)c2)c1 (10 µM),0.0623
5,Cc1nn(C)c2ncc(C(=O)Nc3cccc(NC(=O)c4cccs4)c3)cc12 (10 µM),-0.0207
6,O=C1OCC(c2ccc3c(c2)OCCCO3)=C1c1ccc(Cl)c(Cl)c1 (10 µM),0.0274
7,O=C(Nc1nc2ccccc2s1)NC(c1ccccc1)c1ccco1 (stereo not drawn) (1 µM),0.21
8,COc1ccccc1N1CCN(C(=O)c2cn(C)c(=O)c3ccccc23)CC1 (1 µM),0.16
9,O=C(Nc1ccc(C(=O)N2CCCC2)cc1)c1ccc(Br)o1 (10 µM),0.0565
10,Cc1cc(NCCOc2ccc3c(c2)CCC3)n2ncnc2n1 (10 µM),0.197
11,COc1ccc(-c2noc(CCl)n2)c(OC)c1 (1 µM),0.00577
12,Cc1cc(Sc2ccc3c(c2)OCCCO3)n2ncnc2c1 (10 µM),0.183
13,O=C(NCCCOCc1ccco1)c1cc2c(nc3sccn32)s1 (10 µM),0.0919
14,O=C(Nc1cccnc1)c1ccc(Br)s1 (10 µM),-0.0289
15,COC(=O)c1ccccc1NS(=O)(=O)c1ccc(OC)cc1 (10 µM),-0.059
16,CCn1c(-c2nonc2N)nc2c(C#CC(C)(C)O)ncc(OC[C@H]3CCCNC3)c21 (20 µM),-0.00864
17,O=C(Nc1nc(-c2ccccn2)cs1)c1ccc(Cl)cc1 (0.1 µM),0.111
18,CC(=O)Nc1ccc(C(=O)Nc2nc(-c3c(C)[nH]c4ccccc34)cs2)s1 (10 µM),-0.0041
19,Cc1ccc(C(C)C)c(OCC(=O)Nc2nc(C)c(C)s2)c1 (10 µM),-0.0882
20,CCCCOc1ccc(-c2nnc(CCl)o2)cc1 (10 µM),0.0432

# Look-ups from the entries so far:
# In BRD4 median nuclear fluorescence intensity change (log2), COc1ccc(-c2noc(CCl)n2)c(OC)c1 (1 µM) reads 0.00577
# In BRD4 median nuclear fluorescence intensity change (log2), Cc1ccccc1N1CCN(C(=O)c2cn[nH]c2-c2ccccc2)CC1 (1 µM) reads -0.0506
# In BRD4 median nuclear fluorescence intensity change (log2), COC(=O)c1ccccc1NS(=O)(=O)c1ccc(OC)cc1 (10 µM) reads -0.059
# In BRD4 median nuclear fluorescence intensity change (log2), Cc1cc(Sc2ccc3c(c2)OCCCO3)n2ncnc2c1 (10 µM) reads 0.183
# In BRD4 median nuclear fluorescence intensity change (log2), CN(C)c1cccc(C(=O)c2cccc(N(C)C)c2)c1 (10 µM) reads 0.0623

# Remaining list, next part.

row,SMILES,BRD4 median nuclear fluorescence intensity change (log2)
1,CC(=O)NCCc1nc2ccccc2n1CCCOc1cc(C)ccc1C(C)C (10 µM),-0.0327
2,O=C(Nc1ccc(-c2ccccc2)cn1)c1cccc(Cl)c1 (10 µM),0.0048
3,Cn1cnc([N+](=O)[O-])c1Sc1ncnc2[nH]cnc12 [azathioprine] (10 µM),0.0116
4,O=C(NCc1ccoc1)c1cc2c(nc3sccn32)s1 (10 µM),0.0719
5,Cc1ccc2sc(/C=C/c3cccnc3)nc2c1 (10 µM),0.0997
6,CNc1ncc2cc(-c3cc(NC(=O)NCCC(C)(C)C)c(F)cc3C)c(C)nc2n1 (4.99874 µM),0.0709
7,COC(=O)c1ccc(C)c(NC(=O)CCNC(=O)Nc2ccccc2)c1 (10 µM),-0.0124
8,Cc1ccc(C2=Nn3c(COc4ccccc4F)nnc3SC2)c(C)c1 (0.1 µM),0.0207
9,Cc1ccccc1OCCOC(=O)c1cc(C)c(C)c(S(N)(=O)=O)c1 (10 µM),-0.113
10,CC(OC(=O)c1ccc(-c2ccc(O)cc2)cc1)C(=O)NCc1ccccc1 (stereo not drawn) (10 µM),-0.0067
11,ClCc1nc2cc(Cl)ccc2n1Cc1ccccc1 (10 µM),0.039
12,O=C(Nc1cccc2cccnc12)c1ccccc1-c1ccccc1 (10 µM),-0.0881
13,Cn1ccnc1COc1ccc(C(=O)Nc2nc(C(C)(C)C)cs2)cc1 (1 µM),0.148
14,COc1ccc(-c2nc(N(Cc3ccccc3)C(=O)CSc3nc(C)cc(=O)[nH]3)sc2C)cc1 (10 µM),0.0452
15,Cc1nc2ccc(C(=O)OC(C)C(=O)c3c(C)[nH]c4ccccc34)cc2nc1C (stereo not drawn) (10 µM),-0.0362
16,O=C(Cc1noc(CCl)n1)NCc1ccccc1 (10 µM),0.0562
17,CN1CC(=O)Nc2cc(Cl)ccc21 (10 µM),0.0211
18,Cc1ccsc1C(=O)N=C(c1ccc(N(C)C)cc1)c1ccc(N(C)C)cc1 (10 µM),-0.0458
19,O=C(CCc1ccco1)Nc1ccc(N2CCCC2)cn1 (1 µM),0.0274
